PubChem BioAssay AID1224830 | NIAID, 2016

Aim: 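Host factors that control LPS-induced TNF expression in human macrophages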 (primary screen)
System: human THP-1 monocytic leukaemia cells, TNF dual-luciferase reporter clone, PMA-differentiated to macrophage-like cells
Knock-down reagent: siRNA pool against human genes, 50 nM
Time to read-out: LPS for 4 h, given about 3 days after siRNA transfection
Conditions: bacterial LPS (TLR4 ligand), 10 ng/ml
Measured: 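TNF firefly reporter luminescence divided by renilla, normalised to the plate median, then turned into a robust z-score for each replicate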
Scale: TNF reporter robust z-score: higher = stronger TNF reporter response to LPS
Hit rule: 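Each well counts as active if its z-score is over 2.8 or under -1.5; controls are left without a call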
Here is an unselected part of about 18,000 reagents tested. Of all reagents, about 2,900 (16%) got an active call. 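Calls are made per well; low scores hint the gene aids the LPS response, high scores that it dampens it.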 Repeated entries: four replicate wells of each siRNA pool. Reagent sequences are not shown.

target gene,TNF reporter robust z-score,call
MYO18B,1.67,inactive
MYO18B,1.02,inactive
MYO18B,1.3,inactive
MYO18B,0.52,inactive
EVX1,-2.18,active
EVX1,-1.65,active
EVX1,0.08,inactive
EVX1,-1.55,active
INHBB,-0.02,inactive
INHBB,0.05,inactive
INHBB,-0.39,inactive
INHBB,-0.18,inactive
MAP2K4,1.82,inactive
MAP2K4,1.37,inactive
MAP2K4,1,inactive
MAP2K4,2.58,inactive
UNC13D,-0.14,inactive
UNC13D,0.3,inactive
UNC13D,0.58,inactive
UNC13D,-0.2,inactive
ETFA,0.62,inactive
ETFA,0.72,inactive
ETFA,0.65,inactive
SENP8,-0.2,inactive
SENP8,-0.4,inactive
SENP8,0.37,inactive
SENP8,0.11,inactive
IL23A,3.02,active
IL23A,5.29,active
IL23A,0.49,inactive
IL23A,-0.2,inactive
PM20D1,-1.03,inactive
PM20D1,-0.41,inactive
PM20D1,-0.48,inactive
PM20D1,-0.15,inactive
PGM2,-0.2,inactive
PGM2,2.9,active
PGM2,0.88,inactive
PGM2,-0.19,inactive
SKIDA1,-1.62,active
SKIDA1,-0.5,inactive
SKIDA1,-0.95,inactive
SKIDA1,-0.56,inactive
ATOSA,-1.23,inactive
ATOSA,0.21,inactive
ATOSA,-0.74,inactive
ATOSA,0.1,inactive
